According to PMC5387032 (Photosynthesis Research, 2017):
These are yes or no findings as the source states them, for the method shown. Some results given as binding are weak or reduced against the parent protein; the word gives no strength. Where a sequence is shown, tags or fusion partners need not be part of it.

By UniProt entry, the sequences of proteins in these tests, tags left out.
UniProt Q8DIS5: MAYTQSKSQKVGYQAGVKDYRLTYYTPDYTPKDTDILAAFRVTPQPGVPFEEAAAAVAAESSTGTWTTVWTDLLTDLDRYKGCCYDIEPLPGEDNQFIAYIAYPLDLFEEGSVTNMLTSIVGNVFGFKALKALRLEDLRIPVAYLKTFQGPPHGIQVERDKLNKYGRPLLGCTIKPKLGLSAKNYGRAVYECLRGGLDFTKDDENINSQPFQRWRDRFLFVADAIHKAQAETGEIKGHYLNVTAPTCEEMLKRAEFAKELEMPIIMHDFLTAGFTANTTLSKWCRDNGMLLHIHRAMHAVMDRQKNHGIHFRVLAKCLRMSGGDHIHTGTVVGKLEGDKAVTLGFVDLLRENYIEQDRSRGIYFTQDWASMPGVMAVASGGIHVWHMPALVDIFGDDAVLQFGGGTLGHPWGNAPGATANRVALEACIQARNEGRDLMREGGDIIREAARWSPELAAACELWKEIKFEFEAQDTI

Columns and labels:
[1] = biological target: RbcL from Thermosynechococcus elongatus, made in E. coli (Thermosynechococcus elongatus) (UniProt Q8DIS5); assay: native gel or EMSA; raf1 from Synechocystis co-expressed with rbcL genes in E. coli (or rbcL alone); crude extracts separated by native PAGE and probed with anti-RbcL or anti-RAF1 antibodies
[2] = biological target: RbcL from Thermosynechococcus elongatus, made in E. coli (Thermosynechococcus elongatus) (UniProt Q8DIS5); assay: native gel or EMSA; purified proteins or complexes (2.5 µg, or 5 µg where in excess) mixed, incubated 10 min at room temperature, native PAGE, Coomassie-stained; both purified
[3] = biological target: RbcL from Thermosynechococcus elongatus, made in E. coli (Thermosynechococcus elongatus) (UniProt Q8DIS5); assay: co-purification (ammonium sulfate precipitation, ion exchange chromatography); complexes formed on co-expression in E. coli Rosetta; ammonium sulfate precipitation and Q-Sepharose, 20 mM Tris pH 8.0, 2 mM β-mercaptoethanol, 0–500 mM NaCl gradient

Measured: binding

B1: RAF1 from Synechocystis sp. PCC 6803, untagged, made in E. coli (protein)
chain: MTHSPESNPTVSAAEAAELIRSLLHKEGTWVDWGKKCQQLQKAGYGAEEIFEQSGFQKVQQNLVIVASQVYESLVKQGIDETVLSYYRGPKSDVLYELRILNHQQRAIAAVEAQQKNLAADEAKELAKAFQEFGYLSQLPEGFTDHPGDALAYQCWKLARQKKNLPERTRLIVKGLKFAHSPNARQAIEKLLTDLTAQPSRKAPLVPVFRLEEDQEAARLIPVAGTFPLQPQAVQAVQSLEQVEPFGLVSYQGEGAVVPVPQWQAILTAEDPVAIFCPAGQVSESLARKDEQVLVVVDRSKKIWNDGSYFLLNQGETVAIQWCETEPEREILAQVVLVLRPKKIFDANNLREPWQMDD
binds: [1] | [2] | [3]
